Measurements reported in PubChem BioAssay AID1259425 (University of Nebraska Medical Center, 2018)
Assay: 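Compare each knockdown with KSR1 silencing using changes in marker transcripts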 (primary screen). System: HCT116 human colon cancer cells. Reagents: siRNA pool against human genes, 50 nM siRNA. Read-out: 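mRNA of six signature genes measured together by branched-DNA assay after 50 nM siRNA pool, blank removed, divided by geometric mean of two housekeeping genes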. Direction: BNIP3L mRNA: higher = more BNIP3L transcript after knockdown; NDRG1 mRNA: higher = more NDRG1 transcript after knockdown; BNIP3 mRNA: higher = more BNIP3 transcript after knockdown; ALDOC mRNA: higher = more ALDOC transcript after knockdown.
The deposit covers about 14,000 reagents; below is an unselected part. Further read-outs or replicates are left out here. Not given: the time to read-out.

no.	gene	PubChem SID	BNIP3L mRNA, set 1	NDRG1 mRNA, set 1	BNIP3 mRNA, set 1	ALDOC mRNA, set 1
1	NMT2 (N-myristoyltransferase 2)	SID363995762	0.122	0.29	0.413	0.0424
2	KIAA0232	SID364005373	0.0853	0.255	0.295	0.0136
3	OPA1 (OPA1 mitochondrial dynamin like GTPase)	SID363999574	0.0535	0.0809	0.194	0.0278
4	ACRBP (acrosin binding protein)	SID364004006	0.209	0.202	0.204	0.0208
5	ADRA2C (adrenoceptor alpha 2C)	SID363991982	0.0517	0.0985	0.24	0.0315
6	RIPK3 (receptor interacting serine/threonine kinase 3)	SID363997635	0.148	0.268	0.337	0.0146
7	VIP (vasoactive intestinal peptide)	SID363994493	0.154	0.0719	0.296	0.0201
8	MTRF1L (mitochondrial translation release factor 1 like)	SID364001351	0.0934	0.169	0.235	0.0228
9	BLCAP (BLCAP apoptosis inducing factor)	SID363997478	0.108	0.102	0.286	0.00906
10	TREX1 (three prime repair exonuclease 1)	SID364003812	0.0694	0.0569	0.256	0.0592
11	HMGCS1 (3-hydroxy-3-methylglutaryl-CoA synthase 1)	SID363993336	0.0819	0.423	0.244	0.0215
12	ITGB3BP (integrin subunit beta 3 binding protein)	SID363998721	0.0718	0.106	0.274	0.0268
13	CALN1 (calneuron 1)	SID364003650	0.0921	0.404	0.369	0.0307
14	FOLR3 (folate receptor gamma)	SID363992094	0.0882	0.046	0.188	0.0242
15	ANTKMT (adenine nucleotide translocase lysine methyltransferase)	SID364002658	0.114	0.0965	0.271	0.0209
16	ARHGAP15 (Rho GTPase activating protein 15)	SID364001090	0.148	0.101	0.197	0.0328
17	IDO1 (indoleamine 2,3-dioxygenase 1)	SID363993368	0.0984	0.232	0.34	0.0216
18	MAP7D3 (MAP7 domain containing 3)	SID364005387	0.123	0.153	0.308	0.0408
19	GOLGA3 (golgin A3)	SID363996764	0.0736	0.086	0.283	0.0264
20	DTX4 (deltex E3 ubiquitin ligase 4)	SID364005300	0.149	0.487	0.576	0.039

Targets above whose target name begins with I or i (2):
gene	PubChem SID	BNIP3L mRNA, set 1	NDRG1 mRNA, set 1	BNIP3 mRNA, set 1	ALDOC mRNA, set 1
ITGB3BP (integrin subunit beta 3 binding protein)	SID363998721	0.0718	0.106	0.274	0.0268
IDO1 (indoleamine 2,3-dioxygenase 1)	SID363993368	0.0984	0.232	0.34	0.0216
